This note sets out measurements from patent US5859226.

The test system of series [1] is RF-X (X-box binding transcription factor + nuclear extract). The series can be described thus: competition with a labelled probe. The conditions noted are these: competes with hot AX, protein in an extract, protein details: Raji cell nuclear extract.
The test system is the same in series [2]. The series can be described thus: EMSA. The conditions noted are these: protein in an extract; protein details: Raji cell nuclear extract; variant of DRA X-box probe (AX, extended X-box).

For at least one entry, the source does not settle the construct or the ends of the probe. At least one result comes from cells or an extract, where the contact may be indirect. For some assays here: Negatives hold for the conditions tested.

Regarding “CTAGGGGTTTTCCCCTAGCAACAGATGTTTTCATCTGTTG [unligated RF-X decoy]”, the binding result in series [1] (folded or branched DNA) was “binds”.
Take “CCCCTAGCAACAGATG (double strand) [16 bp X-box]”: the binding result in series [2] was “no binding”; in series [1] (variant of DRA X-box probe (AX, extended X-box)) it was “binds”.
As for “CTAGGGGTTTTTCCCCTAGCAACAGATGTTTTTCATCTGTTG [RF-X decoy T5 (ligated)]”, the binding result in series [1] (folded or branched DNA) is recorded as “binds”.
Take “CTAGGGGTTTTCCCCTAGCAACAGATGTTTTCATCTGTTG [RF-X decoy (ligated dumbbell, 40-mer)]”: in series [1] (folded or branched DNA), the binding result is on record as “binds”.
